# Article PMC7337905, “Nitrosative stress inhibits aminoacylation and editing activities of mitochondrial threonyl-tRNA synthetase by S-nitrosation” (Nucleic Acids Research, 2020)
# Results are given in words; binding and its absence hold for the method and conditions named. Some entries that bind do so weakly or less than the wild type.
# B1: human mitochondrial threonyl-tRNA synthetase, mature form (enzyme, UniProt Q9BW92 20-718)
# chain: LHTAVVSTPPRWLAERLGLFEELWAAQVKRLASMAQKEPRTIKISLPGGQKIDAVAWNTTPYQLARQISSTLADTAVAAQVNGEPYDLERPLETDSDLRFLTFDSPEGKAVFWHSSTHVLGAAAEQFLGAVLCRGPSTEYGFYHDFFLGKERTIRGSELPVLERICQELTAAARPFRRLEASRDQLRQLFKDNPFKLHLIEEKVTGPTATVYGCGTLVDLCQGPHLRHTGQIGGLKLLSNSSSLWRSSGAPETLQRVSGISFPTTELLRVWEAWREEAELRDHRRIGKEQELFFFHELSPGSCFFLPRGTRVYNALVAFIRAEYAHRGFSEVKTPTLFSTKLWEQSGHWEHYQEDMFAVQPPGSDRPPSSQSDDSTRHITDTLALKPMNCPAHCLMFAHRPRSWRELPLRLADFGALHRAEASGGLGGLTRLRCFQQDDAHIFCTTDQLEAEIQSCLDFLRSVYAVLGFSFRLALSTRPSGFLGDPCLWDQAEQVLKQALKEFGEPWDLNSGDGAFYGPKIDVHLHDALGRPHQCGTIQLDFQLPLRFDLQYKGQAGALERPVLIHRAVLGSVERLLGVLAESCGGKWPLWLSPFQVVVIPVGSEQEEYAKEAQQSLRAAGLVSDLDADSGLTLSRRIRRAQLAHYNFQFVVGQKEQSKRTVNIRTRDNRRLGEWDLPEAVQRLVELQNTRVPNAEEIF
# Molecular target: human mitochondrial threonyl-tRNA synthetase, mature form (human) (UniProt Q9BW92)
# Assay: SEC; gel filtration of purified hmtThrRS in the absence or presence of GSNO; column and buffer not stated; both purified
binder,measurement,value
B1,binding,binds
